Results are given in words; binding and its absence hold for the method and conditions named. Binding seen in cells or lysates may run through a third protein. Some binding calls cover weakened binding; strength is not graded here. Sequences can lack the tags named with a protein.
T1: HA-Slug (full length mouse Slug in pDHA, two HA tags) (Mus musculus) (UniProt P97469)
T1 sequence (chain, by the resolver, 35S-methionine labelled in Example 5): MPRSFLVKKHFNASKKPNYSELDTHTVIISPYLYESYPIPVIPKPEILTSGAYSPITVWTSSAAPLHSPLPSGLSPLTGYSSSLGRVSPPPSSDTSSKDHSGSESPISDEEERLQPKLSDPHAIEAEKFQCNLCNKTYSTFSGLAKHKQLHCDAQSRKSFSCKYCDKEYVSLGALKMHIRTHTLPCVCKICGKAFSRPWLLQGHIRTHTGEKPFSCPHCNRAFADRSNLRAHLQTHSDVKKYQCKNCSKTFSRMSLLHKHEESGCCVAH

T2: GST-Slug (full length mouse Slug in pGEX4T-1) (Mus musculus) (UniProt P97469)
T2 sequence: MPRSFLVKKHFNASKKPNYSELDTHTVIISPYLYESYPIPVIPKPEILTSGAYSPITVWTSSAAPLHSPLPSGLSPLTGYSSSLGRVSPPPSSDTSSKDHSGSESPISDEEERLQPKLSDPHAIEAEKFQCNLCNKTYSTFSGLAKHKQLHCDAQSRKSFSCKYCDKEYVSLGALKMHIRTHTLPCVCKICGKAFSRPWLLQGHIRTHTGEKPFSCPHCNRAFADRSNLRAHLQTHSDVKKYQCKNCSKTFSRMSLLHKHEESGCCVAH


Key:
[1] = biological target: T1, HA-Slug (full length mouse Slug in pDHA, two HA tags) (Mus musculus); assay: GST pull-down of 35S-labeled in vitro translated HA-Slug, autoradiography
[2] = biological target: T2, GST-Slug (full length mouse Slug in pGEX4T-1) (Mus musculus); assay: GST pull-down of in vitro translated MYC-ZO-2GA, anti-myc blot

| binding [1] | binding [2] | Binder |
| --- | --- | --- |
| binds | – | GST-ZO-2GA (canine ZO-2 amino acids 714-947 in pGEX-6P-1) (protein, not shown: a dimerising Fc or GST; small tags and cut ends) KRPVVLFGPIADIALEKLANELPDLFQTAKTEPKDAGSEKSSGVVRLNTVRQIIEQDKHALLDVTPKAVDLLNYTQWFPIVIFFNPDSRQGVKTMRQRLNPTSNKSSRKLYDQANKLKKTCAHLFTATINLNSANDSWFGSLKDTIQHQQGEAVWVSEGKMEGMDDDPEDRMSYLTAMGADYLSCDSRLISDFEDTDGEGGAYTDNELDEPAEEPLVSSITRSSEPVQHEESIR |
| binds | – | GST-ZO-2SGA (canine ZO-2 amino acids 575-947 in pGEX-6P-1) (protein, not shown: a dimerising Fc or GST; small tags and cut ends) RADVYRDILACGRGDSFFIRSHFECEKETPQSLAFSRGEVFRVVDTLYDGKLGHWLAVRIGNELEKGLIPNKSRAEQMASVQNAQRDNAGDRADFWRMRGQRSGMKKNLRKSREDLTAAVSVSTKFPAYERVLLREAGFKRPVVLFGPIADIALEKLANELPDLFQTAKTEPKDAGSEKSSGVVRLNTVRQIIEQDKHALLDVTPKAVDLLNYTQWFPIVIFFNPDSRQGVKTMRQRLNPTSNKSSRKLYDQANKLKKTCAHLFTATINLNSANDSWFGSLKDTIQHQQGEAVWVSEGKMEGMDDDPEDRMSYLTAMGADYLSCDSRLISDFEDTDGEGGAYTDNELDEPAEEPLVSSITRSSEPVQHEESIR |
| – | binds | MYC tagged GA domain of canine ZO-2 (amino acids 713-947), in vitro translated (protein, not shown: small tags and cut ends) FKRPVVLFGPIADIALEKLANELPDLFQTAKTEPKDAGSEKSSGVVRLNTVRQIIEQDKHALLDVTPKAVDLLNYTQWFPIVIFFNPDSRQGVKTMRQRLNPTSNKSSRKLYDQANKLKKTCAHLFTATINLNSANDSWFGSLKDTIQHQQGEAVWVSEGKMEGMDDDPEDRMSYLTAMGADYLSCDSRLISDFEDTDGEGGAYTDNELDEPAEEPLVSSITRSSEPVQHEESIR |

— patent US20150031748A1 (AGENCY FOR SCIENCE TECHNOLOGY AND RESEARCH, published 2015)
